Experimental data: PubChem BioAssay AID493246 (Drosophila RNAi Screening Center, 2011)
Purpose: 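Genes fly cells need to grow and stay alive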 (primary screen). Cells: Drosophila Kc and S2R+ cells. Knock-down reagent: long dsRNA against Drosophila genes. Measurement: 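Cell number per well after knock-down, printed as raw plate values; calls were based on per-plate z-scores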. Direction: Kc cell number and S2R+ cell number: higher = more cells remaining. Active means: 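Active when the per-plate z-score of cell number is 3 or more in the direction of fewer cells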.
The deposit covers about 21,000 reagents; shown is a random part of those that have a named target and a result. In the full data, 429 (2%) were called active. 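Values are raw and not normalised between plates; calls rest on per-plate z-scores that were not deposited.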 The record does not give: the amount of reagent, the time to read-out.

Depletion of Hsc70-5 (GeneID 36583) [DRSC07442] gave: Kc cell number, rep 1 = 1.45e6; Kc cell number, rep 2 = 1.53e6; S2R+ cell number, rep 1 = 9.14e5; S2R+ cell number, rep 2 = 1.05e6; inactive.
OstDelta (GeneID 37029) [DRSC06980] showed Kc cell number, rep 1 = 1.40e6; Kc cell number, rep 2 = 1.42e6; S2R+ cell number, rep 1 = 1.16e6; S2R+ cell number, rep 2 = 1.16e6; inactive.
CG6184 (GeneID 42345) [DRSC15986] showed Kc cell number, rep 1 = 1.33e6; Kc cell number, rep 2 = 1.32e6; S2R+ cell number, rep 1 = 1.03e6; S2R+ cell number, rep 2 = 1.19e6; inactive.
Silencing of Pdhb (GeneID 43437) [DRSC14420] resulted in: Kc cell number, rep 1 = 4.95e5; S2R+ cell number, rep 1 = 6.85e5; inactive.
For CG14273 (GeneID 34146) [DRSC02377], the values are Kc cell number, rep 1 = 1.61e6; Kc cell number, rep 2 = 1.66e6; S2R+ cell number, rep 1 = 1.16e6; S2R+ cell number, rep 2 = 1.29e6; inactive.
Silencing of CG6431 (GeneID 34476) [DRSC02956] came out at: Kc cell number, rep 1 = 1.58e6; Kc cell number, rep 2 = 1.59e6; S2R+ cell number, rep 1 = 1.18e6; S2R+ cell number, rep 2 = 1.33e6; inactive.
With knock-down of larp (GeneID 53567) [DRSC14728], the screen gave Kc cell number, rep 1 = 1.40e6; Kc cell number, rep 2 = 1.41e6; S2R+ cell number, rep 1 = 9.35e5; S2R+ cell number, rep 2 = 1.00e6; inactive.
Depletion of larp (GeneID 53567) [DRSC16984] gave: Kc cell number, rep 1 = 1.38e6; Kc cell number, rep 2 = 1.42e6; S2R+ cell number, rep 1 = 9.23e5; S2R+ cell number, rep 2 = 1.08e6; inactive.
ND-B17 (GeneID 34925) [DRSC01981] showed Kc cell number, rep 1 = 1.38e6; Kc cell number, rep 2 = 1.43e6; S2R+ cell number, rep 1 = 1.16e6; S2R+ cell number, rep 2 = 1.32e6; inactive.
Knock-down of CG7966 (GeneID 41610) [DRSC16356] came out at: Kc cell number, rep 1 = 1.55e6; Kc cell number, rep 2 = 1.65e6; S2R+ cell number, rep 1 = 1.36e6; S2R+ cell number, rep 2 = 1.44e6; inactive.
EMRE (GeneID 37071) [DRSC06686] showed Kc cell number, rep 1 = 1.57e6; Kc cell number, rep 2 = 1.60e6; S2R+ cell number, rep 1 = 1.17e6; S2R+ cell number, rep 2 = 1.23e6; inactive.

Reprinted from the entries so far, 3 entries:
CG6184 (GeneID 42345) [DRSC15986]: Kc cell number, rep 1 = 1.33e6; Kc cell number, rep 2 = 1.32e6; S2R+ cell number, rep 1 = 1.03e6; S2R+ cell number, rep 2 = 1.19e6; Outcome = inactive
Pdhb (GeneID 43437) [DRSC14420]: Kc cell number, rep 1 = 4.95e5; S2R+ cell number, rep 1 = 6.85e5; Outcome = inactive
CG14273 (GeneID 34146) [DRSC02377]: Kc cell number, rep 1 = 1.61e6; Kc cell number, rep 2 = 1.66e6; S2R+ cell number, rep 1 = 1.16e6; S2R+ cell number, rep 2 = 1.29e6; Outcome = inactive

More reagents:
Silencing of PolrMT (GeneID 33285) [DRSC00660] resulted in: Kc cell number, rep 1 = 1.23e6; Kc cell number, rep 2 = 1.25e6; S2R+ cell number, rep 1 = 9.62e5; S2R+ cell number, rep 2 = 1.02e6; inactive.
After knock-down of Cals (GeneID 43824) [DRSC17196], the screen gave Kc cell number, rep 1 = 5.50e5; S2R+ cell number, rep 1 = 8.68e5; inactive.
Silencing of CG4768 (GeneID 32666) [DRSC19917] resulted in: Kc cell number, rep 1 = 1.67e6; Kc cell number, rep 2 = 1.57e6; S2R+ cell number, rep 1 = 1.16e6; S2R+ cell number, rep 2 = 1.27e6; inactive.
Silencing of CG18262 (GeneID 31745) [DRSC18149] came out at: Kc cell number, rep 1 = 1.72e6; Kc cell number, rep 2 = 1.72e6; S2R+ cell number, rep 1 = 1.09e6; S2R+ cell number, rep 2 = 1.20e6; inactive.
With knock-down of Pex7 (GeneID 38994) [DRSC10651] the results were Kc cell number, rep 1 = 1.39e6; Kc cell number, rep 2 = 1.70e6; S2R+ cell number, rep 1 = 1.09e6; S2R+ cell number, rep 2 = 1.22e6; inactive.
After knock-down of CG30109 (GeneID 246461) [DRSC05675] the results were Kc cell number, rep 1 = 5.65e5; S2R+ cell number, rep 1 = 8.37e5; inactive.
Against Nab2 (GeneID 42897) [DRSC14158], the values are Kc cell number, rep 1 = 1.78e6; Kc cell number, rep 2 = 1.83e6; S2R+ cell number, rep 1 = 1.35e6; S2R+ cell number, rep 2 = 1.37e6; inactive.
For Argk1 (GeneID 39041) [DRSC08959], the values are Kc cell number, rep 1 = 1.35e6; Kc cell number, rep 2 = 1.41e6; S2R+ cell number, rep 1 = 9.63e5; S2R+ cell number, rep 2 = 1.14e6; inactive.
With knock-down of Argk1 (GeneID 39041) [DRSC09668], the screen gave Kc cell number, rep 1 = 1.79e6; Kc cell number, rep 2 = 1.84e6; S2R+ cell number, rep 1 = 1.08e6; S2R+ cell number, rep 2 = 1.08e6; inactive.
Silencing of Argk1 (GeneID 39041) [DRSC10460] gave: Kc cell number, rep 1 = 1.32e6; Kc cell number, rep 2 = 1.38e6; S2R+ cell number, rep 1 = 1.28e6; S2R+ cell number, rep 2 = 1.20e6; inactive.
